We go through 107 sequences from PubChem BioAssay AID1508600 (Functional Genomics Laboratory (NCATS/FGL), 2020).

Out of some 53,000 sequences screened, about 3,700 (7%) were called active.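 How the source made its calls: active means gene knockdowns whose robust z-score for IL-1 alpha signal is at least 2 or at most -2, so actives lie on both sides; inactive means the rest.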 Some of the results follow.

The nature of this assay: Components of the Cytosolic LPS Sensing Pathway: Gene Identification via Genome-wide siRNA Screen.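 Further: robust z of the log signal after scaling to non-targeting control siRNA wells of the plate.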 Particulars: RAW264.7 macrophages, IL-1a HTRF, actives lie on both sides, screened at 100 nM (by protocol), cells primed 5 h with Pam3CSK4 first. The method in brief: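 Knockdown: 100 nM siRNA, 48h, RAW264.7. Stimulation: Pam3CSK4 5 h, then LipidA via TransIT-TKO 24 h. Output: supernatant IL-1a HTRF, negative-control-normalized, log robust z-score; viability by CellTiter-Glo.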
GGCAGCAAAAAGGUGACGCTT against Cdk5r2: the z-score was inactive: -0.522.
In the case of GCGCCUUAACCAAGAAGUUTT against Cox18, the z-score is active: 2.84.
Next, GGAGGCUUCAUUCUGCUUUTT against Rab11fip5: inactive: 0.401; GGAGCUGAUCCUUAACUUATT against Adam1b: inactive: 0.526; CGUGAUUCUAGUAAGAGAGTT against Mbd1: inactive: -0.863.
Next, CCGAUGAUGAGAUUAAUAUTT against Ophn1: inactive: -1.16; GGCCAUUAACAUCACCAACTT against Csnk2a2: inactive: -0.0869; GGUUGUCACCCUGACGGAATT against Cox4i2: inactive: -1.19.
Consider GGGUGGACUCAGUGCUUCUTT against Hoxd3, for which the z-score is inactive: -0.593.
Next, “GGUUGUGUUUUCAAGAAUUTT against 4921507P07Rik”: inactive: 0.27; GGCUAGUCACCUUUGUAGCTT against Mmrn2: inactive: 0.356; CCUUAAUUGGGUUGAAUUCTT against Olfr878: active: 2.44.
With GGUCCUAUCUUCCUAUCAUTT against Smtnl2, the z-score was inactive: 0.783.
As to GCACCUCUCCAUGUACAAGTT against Iba57, the z-score is inactive: 0.938.
On to GGAACAGGAAGAAAGAAAATT against Ube2e3, for which the z-score is inactive: -0.267.
The figure for CGUGCUGUUGUGUAAUUUCTT against Wdr37 is inactive: 1.13; for GGAAUGUCGAAGAAAAUGCTT against Adam15 it is inactive: -0.197.
Turning to GGAAACCACAUAGAAUAAUTT against Rtp1, the z-score is inactive: 0.845.
The figure for CAAUACAUUGAUAGCAAAUTT against Vmn1r206 is inactive: -0.123; for GGCUCUUUGCGAAAAUGGATT against Rnaseh2a it is inactive: -0.889.
The figure for GGAUCAGAUGAUAAACCAUTT against Ttll3 is inactive: 0.109.
Next, UAGUCACAAGGUUUGAAACTT against Fbxw24: inactive: -0.822; GGGAAAACCCUUUAUUCAGTT against Tmod4: inactive: 0.869.
With GGGAUUUCAUCUUUGAAAGTT against Uqcrq, the z-score is inactive: 0.114.
Next, GGUAUAGAACUGAAGAAGUTT against Dnajc28: inactive: -0.199; GGAAGCCUAGUUUUUUUAATT against Csnk2a1: active: 2.89; “CCUGACUUGCCAUGUAAACTT against F830045P16Rik”: inactive: 0.703.
As for GGGCCUAAGAAGCAUUACUTT against Ndufb11, the z-score is inactive: 0.0545.
The figure for CCGUACCUACAAGUUCACUTT against Fndc11 is inactive: 0.302.
Consider CGGUCUAUGAAAGUUAUUCTT against Mcm9, for which the z-score was inactive: 0.19.
Next, GGUGCAUAUGAGGUAUAUUTT against Nt5e: inactive: 0.729; CCACUCAAGAUCGAUACCUTT against Fgd1: inactive: 0.167; GGAUAUUCCCAAGUCUUUATT against Cyp2e1: inactive: 0.423.
For GCUGAAGUUCGUACCCUACTT against Osbp2, the z-score was active: -2.42.
The figure for GCGGUUAGCACAAUGUGAATT against Ppp2cb is inactive: -0.577.
Next, GGAAGAAUUAAUGAAUACCTT against Ncoa1: inactive: 1.36; GGACAUUUCUGACAAAAAGTT against Cab39: inactive: -1.18.
Take GGAUAAGAAAACUGAAGAATT against Tex16: the z-score was inactive: 1.4.
Next, GCUCUACGAAAAGAAAAUCTT against Emd: inactive: -0.987; GGCAGUUGAAUUGUUUGAGTT against Dact1: inactive: -0.91; GGAGUGUGGAAUUUAAUACTT against Cstf2t: inactive: -0.563.
Next, GGUACAAAGUGAAAUAGCUTT against Rnf34: inactive: 0.391.
Regarding GGUUGGACAGAAACAUCAGTT against Rab29, the z-score was inactive: 0.399.
The figure for GCAACAUAUCGGCAGAUGATT against Cpsf3 is inactive: 0.486; for CCUAUUCUUAACACCCUUGTT against Tfr2 it is inactive: 0.891.
Next, GGAGAUGUUUACAUGUAUUTT against Mboat1: inactive: 0.766; CCUGCUCAUCAUUCUUCUCTT against Olfr50: inactive: -0.848.
Next, GGGUUUUCAAAGACAAGAUTT against Frmd6: inactive: 1.47.
Consider GGACCCUGCUUUCUCUGCUTT against Kif26b, for which the z-score was inactive: -0.791.
The figure for CCAUGGUUGCCAUAUAUUUTT against Pex19 is inactive: -0.11; for CCAAUCAUGGACUUUAUAATT against Hormad1 it is inactive: -0.362.
Next, CCACGGAGAUGAAAUGCCUTT against Uck2: inactive: -0.831.
Next, GGGACUUCAGACAGUUAUCTT against Ess2: inactive: 1.69; GCUGUUCUAAAUCCAAACCTT against Setx: inactive: -0.645; CCUCCUUCACCAACUUAAATT against Rab33a: inactive: -0.248.
For GGAGAGAACAUUAAAGAUATT against Mtmr2, the z-score was inactive: -0.36.
The figure for GGAGAAUAUUCUCUGUGGATT against Rab11fip5 is active: -2.71; for GCUAUUUGCACUGAAAUAGTT against Pld5 it is inactive: 0.0253; for GCUCUAAAGAGUCCCAAGATT against Nkap it is inactive: -0.161.
GGAUCCGUGCUGAAGUUUUTT against Cep20: the z-score is inactive: -0.338.
Next, CGCAAGAGUUCCUUUUUUUTT against Sla: inactive: 0.671; GCUUACUCCAGCAUAUUUCTT against Qdpr: inactive: -0.437.
For GCUUCCUUCUUCUUGUCCATT against Vmn1r42, the z-score was inactive: -0.475.
Next, GCAUCUACCUAUAAUGAAUTT against Gpatch2l: inactive: -0.174; GGAGUAGCUGAUCAAACCATT against Slc25a12: inactive: -1.8.
The figure for GGCUCCUAACUCACUGGGATT against Ormdl1 is inactive: 0.0548; for GGGCCAAAAUGGUUCCAGCTT against Cyp4b1 it is inactive: 0.485.
Next, CGAAGGACAAAAUAUCAGCTT against Ccdc7a: inactive: 0.531; GGAGAAGAAAGCAAAAACCTT against Ing1: active: -2.11.
GGUUCCUCUCAAAAUUCAATT against Gprc6a: the z-score was active: 3.13.
Next, GGAGAAGAGAGGUUGGACCTT against Gal: inactive: -0.286; GGUACUCCCUAAAUCUAAGTT against Zbtb8b: inactive: 0.95; GGUAUGAUGGGAAAUUUUUTT against Tmod2: inactive: 1.07.
The figure for GGAUAUUCCCAAUUACAAGTT against Plxna3 is inactive: -0.469; for “CGGCUUAAUGUUCUACUUATT against A930024E05Rik” it is inactive: 0.264.
Next, GGCCUGCUUUGUUGUAGUUTT against Olfr830: inactive: 0.618; GCAGUGAUAGCUUCAAUCUTT against Oasl2: inactive: 0.87.
Turning to CCCAGAGUGAUUACUUCAGTT against Klhl15, the z-score was inactive: 0.497.
Next, GGCCUCCAGUGGAUAAUAGTT against Lpgat1: inactive: -0.415.
The figure for GGAAAUCUCAGGUGAGGUCTT against Clcc1 is inactive: -0.127.
The figure for GCUUGUUCCGGGAAUUAUUTT against Ergic2 is inactive: 0.443; for CCCUUUCUAGAAAGUCAGUTT against Spata17 it is inactive: -1.85; for GGACGGAAAGCUCAUCAUUTT against Gnb2 it is inactive: 1.67.
Turning to “GGACCACUAAUUUCAAUGCTT against A730089K16Rik”, the z-score is inactive: 1.04.
The figure for GCCCGCUCUCGGAUUUUGATT against Htr1b is inactive: 1.5.
Next, CCUUAUGUCUACAAUCAAATT against Plac1: inactive: -0.043; GGAACAAAACAAAUAGCUATT against Vstm2a: inactive: 1.79.
The figure for GGCUACUGGAGCAAGUUUATT against Apoc3 is active: 2.48; for GGGUCCUAAAAAUUCAAUUTT against Decr2 it is inactive: -0.106.
Consider CCUUCCUCGUGAUUCGCUATT against Lman2l, for which the z-score was inactive: -0.461.
Next, GGUGCAGUUUCUCCUCUUUTT against Pla1a: active: 2.09.
The figure for CCUUUACCAAUGUUGGCCCTT against Svs1 is inactive: -0.212.
The figure for GGUUUUGUGCCUUAACAGUTT against Abcc4 is inactive: -0.222.
CGUGCUUCGAUUGUAGUUCTT against Zfp607b: the z-score was inactive: -0.0328.
The figure for GGUGAUGGUGUCCUAUAAATT against Hspa1l is inactive: -0.134; for GGCCAGAAUAAGUUAAAUGTT against Cenpl it is inactive: -0.62; for GGAGCUUGACAUUAAGGACTT against Erc2 it is inactive: 0.809.
The figure for GCAGAUUUGACAUGGAAAATT against Zp2 is inactive: 0.301; for GGCUGAUUAUAAACAUGACTT against Nrap it is inactive: 0.131; for GGUGACUCUACAAGCCUUUTT against Elof1 it is inactive: -1.38.
As to GCAGACAACUAGACAUACATT against Selenok, the z-score is inactive: -0.42.
Regarding CCGCUACCUUUGAACGAAUTT against Ren1, the z-score is inactive: 1.48.
The figure for GGACCAGACAGGAAGUAUUTT against Snx20 is active: 2.3.
Next, GGAGAAGAGAGUAUUUAAUTT against Dus4l: inactive: 0.546; CCCUGUGAAAGUGUCAUAUTT against Pigq: inactive: 1.28.
The figure for CCACAGAACAAUUUUCACATT against Rnase11 is inactive: -1.4.
On to GCUAUUGUAGAGAGCUGAATT against Sccpdh, for which the z-score was inactive: 0.107.
